Assay results: patent US9175906B2, “Drug particles from freezing onto a surface” (BOARD OF REGENTS, THE UNIVERSITY OF TEXAS SYSTEM, priority 2003, dated 2015)

Assay: USP Dissolution Apparatus Method 2 (in vitro dissolution)
Format: physicochemical
Conditions: 37° C.; deionized water containing 5.0 wt. % sodium chloride
Method: • Particle Size Analysis. […] Dissolution obtained using the following method is also referred to herein as “in vitro dissolution”. The dissolution media used varied with the drug substance, and is specified below. The dissolution media was heated to 37° C. and degassed. Dissolution was performed utilizing three vessels per experiment. 11 to 12 mg of drug particles prepared according to the present invention was added to each vessel for dissolution analysis. Dissolution samples were filtered automatically into test tubes containing 0.1 mL of acetonitrile, mixed with a vortex mixer, filtered and analyzed by HPLC. Samples were taken at 2, 5, 10, 15, 20, 30, 60, and 120 minutes. At the 60 min. point the agitation speed was increased to 200 rpm to ensures complete dissolution by 120 minutes. The 120 min. reading is the infinity time reading and the infinity time is used to calculate the potency. […] Crystallinity was determined by X-ray diffraction methods using a Bruker D-8 automated diffractometer. • Atmospheric Freeze Drying (ATMFD). ATMFD was one method of solvent removal used in the following examples. Heat transfer fluid was circulated through the circulating jacket of the heat exchanger, that was used to cool the drying gas then to the jacket of the ATMFD unit. […]

Dissolution of bulk drug after 2 minutes: 0.29 wt %
Structure (SMILES): COc1ccc2cc([C@H](C)C(=O)O)ccc2c1 [Naproxen]
